The values that follow come from PMC5713318.

Sequences of proteins named here, by UniProt entry; tags and fusion partners are left off.
UniProt P19793: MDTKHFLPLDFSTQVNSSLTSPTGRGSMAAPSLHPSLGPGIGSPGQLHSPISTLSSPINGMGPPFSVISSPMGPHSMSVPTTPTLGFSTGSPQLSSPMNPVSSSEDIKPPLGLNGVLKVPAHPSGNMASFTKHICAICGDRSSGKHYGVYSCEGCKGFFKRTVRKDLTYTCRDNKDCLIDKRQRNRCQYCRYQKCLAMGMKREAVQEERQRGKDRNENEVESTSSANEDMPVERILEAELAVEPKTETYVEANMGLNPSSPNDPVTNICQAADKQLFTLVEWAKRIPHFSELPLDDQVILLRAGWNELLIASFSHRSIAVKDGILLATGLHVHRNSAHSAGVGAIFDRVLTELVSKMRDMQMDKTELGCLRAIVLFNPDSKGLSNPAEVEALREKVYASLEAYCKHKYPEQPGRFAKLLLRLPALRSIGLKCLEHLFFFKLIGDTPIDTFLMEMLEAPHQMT

The target in the assay is Retinoid x receptor α (human (endogenous in visceral adipose tissue)) (UniProt P19793). As to the kind of experiment: co-IP; nuclear extracts (100 ug) of VAT from LIR-MO and HIR-MO subjects, tissue incubated with 1,25(OH)2D3 (10 uM); precipitated with rat antihuman RXR antibody (rat IgG as control) 20 h at 4 °C, protein G plus/protein A-agarose; blot with anti-VDR.

Results are given in words; binding and its absence hold for the method and conditions named. Binding seen in cells or lysates may run through a third protein. Some results given as binding are weak or reduced against the parent protein; the word gives no strength.

B1: vitamin D receptor (protein, UniProt P11473 1-427)
chain: MEAMAASTSLPDPGDFDRNVPRICGVCGDRATGFHFNAMTCEGCKGFFRRSMKRKALFTCPFNGDCRITKDNRRHCQACRLKRCVDIGMMKEFILTDEEVQRKREMILKRKEEEALKDSLRPKLSEEQQRIIAILLDAHHKTYDPTYSDFCQFRPPVRVNDGGGSHPSRPNSRHTPSFSGDSSSSCSDHCITSSDMMDSSSFSNLDLSEEDSDDPSVTLELSQLSMLPHLADLVSYSIQKVIGFAKMIPGFRDLTSEDQIVLLKSSAIEVIMLRSNESFTMDDMSWTCGNQDYKYRVSDVTKAGHSLELIEPLIKFQVGLKKLNLHEEEHVLLMAICIVSPDRPGVQDAALIEAIQDRLSNTLQTYIRCRHPPPGSHLLYAKMIQKLADLRSLNEEHSKQYRCLSFQPECSMKLTPLVLEVFGNEIS
For B1, the binding result is reported as “binds”.
